From PubChem BioAssay AID504327 (National Center for Advancing Translational Sciences (NCATS), 2011)
In all, about 390,000 compounds went through this assay and about 820 (0.21%) were called active. The inconclusive results got no clear call from the source; some entries with a clear call stand among them for comparison. The call rests on the fitted dose curve; in most records, active means well fitted inhibition curve with a large enough effect; inconclusive means small, poorly fitted or top-dose-only effect, or another doubt; inactive means no such curve, though single readings can be large or run the other way. Potencies of inconclusive entries are doubtful fits and often do not repeat. The source holds several records for some structures; these can differ, active in one and inactive in another.

By UniProt entry, the sequences of proteins in these tests, tags left out.
UniProt Q92830, whole entry, looked up: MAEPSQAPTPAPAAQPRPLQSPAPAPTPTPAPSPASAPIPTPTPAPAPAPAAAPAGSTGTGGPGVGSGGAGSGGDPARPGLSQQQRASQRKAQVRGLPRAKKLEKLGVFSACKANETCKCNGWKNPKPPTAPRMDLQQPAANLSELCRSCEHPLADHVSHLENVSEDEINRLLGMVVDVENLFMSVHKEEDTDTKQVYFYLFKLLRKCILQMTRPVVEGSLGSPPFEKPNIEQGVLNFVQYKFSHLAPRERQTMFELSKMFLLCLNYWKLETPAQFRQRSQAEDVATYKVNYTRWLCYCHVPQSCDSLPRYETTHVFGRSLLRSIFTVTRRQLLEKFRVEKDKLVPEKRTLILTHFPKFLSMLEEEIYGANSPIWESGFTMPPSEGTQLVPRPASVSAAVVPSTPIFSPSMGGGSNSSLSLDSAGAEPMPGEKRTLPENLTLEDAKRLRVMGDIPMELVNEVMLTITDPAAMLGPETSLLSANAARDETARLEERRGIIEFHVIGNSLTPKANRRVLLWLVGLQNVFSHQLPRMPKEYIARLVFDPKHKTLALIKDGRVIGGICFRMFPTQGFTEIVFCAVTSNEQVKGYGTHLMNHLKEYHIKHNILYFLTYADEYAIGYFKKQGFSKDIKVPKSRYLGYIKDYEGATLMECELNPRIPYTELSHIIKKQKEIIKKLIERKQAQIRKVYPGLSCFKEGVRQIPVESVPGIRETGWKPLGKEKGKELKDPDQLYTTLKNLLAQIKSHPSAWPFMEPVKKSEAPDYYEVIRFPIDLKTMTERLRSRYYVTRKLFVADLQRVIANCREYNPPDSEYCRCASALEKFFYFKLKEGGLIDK

These molecules were tested against Histone acetyltransferase KAT2A (Homo sapiens) (UniProt Q92830) (assay: qHTS Assay for Inhibitors of GCN5L2). Settings: GCN5L2 HAT assay, ThioGlo1 CoA-SH fluorescence; activity change, negative = inhibition: at 58.9 µM (top of the series) unless noted.
Summary of the method: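 ThioGlo1-coupled HAT assay: 20nM GCN5L2, 70uM acetyl-CoA, 75uM H3(1-25) peptide, pH 7.5. Fluorescence read at 340/540nm at start and after 20 min at room temperature.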
On the % scale 0 is the no-effect control and ±100 the full control effect; potency means the concentration at half of the fitted maximal effect.

Structure (SMILES)	Potency	activity change, negative = inhibition
CC1(C)Cc2c(sc3ncn4c(=S)[nH]nc4c23)CO1	active: 22.4 µM	
CC(C)n1c(=O)[nH][nH]c1=S	active: 14.1 µM	
CC(=O)Oc1ccc(N2C(=O)C3C(C2=O)C2(C)C=CC3(C)O2)cc1 (stereo not drawn)	inconclusive: 35.5 µM [inhibitor, single point]	
COc1ccc(S(=O)(=O)N(CCO)c2ccccc2CN(C)CC=Cc2ccc(Cl)cc2)cc1		inactive: 9.49%
CCOc1ccc(CNC(=O)c2ccc3c(c2)c(C)c(C)n3Cc2ccccc2)cc1OC		inactive: -5.75%
Cc1ccc(/C=C/C(=O)NN2CCN(C)CC2)cc1	inconclusive: 1.58 µM [inhibitor, partial curve]	
CC1CC(C)CN(S(=O)(=O)c2ccc3c(c2)CC(C)N3C(=O)C2CCC2)C1 (stereo not drawn)	inconclusive: 15.8 µM [inhibitor, partial curve, poor fit]	
COc1ccccc1C(=O)Nc1ccc2nc(SCC(=O)N(C)c3ccccc3)sc2c1		inactive: -13.8%
NC[C@H]1O[C@@H](n2cnc3c(N)ncnc32)[C@H](O)[C@@H]1O	inconclusive: 39.8 µM [inhibitor, single point]	
CC1=[N+](CC(=O)c2ccccc2)CCn2cccc21	inconclusive: 39.8 µM [inhibitor, single point]	
COc1ccc(-c2nc3cnc(N4CCOCC4)nc3n(CCC#N)c2=O)cc1	inconclusive: 20 µM [inhibitor, partial curve]	
CS(=O)(=O)Nc1ccc(C2=NN(C(=O)c3ccco3)C(c3ccc(F)cc3)C2)cc1 (stereo not drawn)		inactive: -20.7%
CC(C)(C)c1ccc(C(=O)N/C(=C\c2ccco2)C(=O)Nc2ccccc2C(=O)O)cc1	inconclusive: 28.2 µM [inhibitor, single point]	
Cc1cc(Cl)ccc1N=c1ssnc1Cl	active: 28.2 µM	
COc1ccc(/C=C(/NC(=O)c2ccccc2Cl)C(=O)NCCCC(=O)O)cc1	inconclusive: 31.6 µM [inhibitor, single point]	
O=[N+]([O-])c1ccc(-c2nnc(-c3ccccc3)c(NCCCO)n2)cc1		inactive: -1.91%
CC(C)CNC(=O)C1CCCN(C(=O)NCc2ccccc2)C1 (stereo not drawn)	inconclusive: 8.91 µM [inhibitor, single point]	
COc1cccc(NC(=O)CN(C)C(C)C(=O)Nc2ccc(S(=O)(=O)N3CCOCC3)cc2)c1 (stereo not drawn)		inactive: 3.55%
CC(=O)n1cc(CO)c2ccccc21	inconclusive: 39.8 µM [inhibitor, single point]	
Cc1ccc(NS(=O)(=O)c2cc([N+](=O)[O-])ccc2NNC(=S)Nc2cc(C)ccc2C)c(C)c1		inactive: -23.9%
Cc1ccc(C(C)C)c(OCC#CCN2CCOCC2)c1		inactive: -21.4%
COc1cc(/C=C/c2ccc3cccc(O)c3n2)c(Br)cc1O		inactive: -3.89%
Cc1ncc(CN2CCN(C3CCCC3)C(CCO)C2)s1 (stereo not drawn)	inconclusive: 25.1 µM [inhibitor, partial curve, poor fit]	
CCC(C(=O)Nc1cccc(Cl)c1C)n1nc(C)c2sc3ccccc3c2c1=O (stereo not drawn)	inconclusive: 31.6 µM [inhibitor, single point]	
Cn1c(=O)n(C)c2cc(/C=N/NC(=O)c3ccc(Cl)cc3)ccc21		inactive: -27%

Some of the entries so far, with bars between the fields.
Structure (SMILES) | Potency | activity change, negative = inhibition
COc1ccc(S(=O)(=O)N(CCO)c2ccccc2CN(C)CC=Cc2ccc(Cl)cc2)cc1 |  | inactive: 9.49%
CC1=[N+](CC(=O)c2ccccc2)CCn2cccc21 | inconclusive: 39.8 µM [inhibitor, single point] | 

More compounds:

Structure (SMILES)	Potency	activity change, negative = inhibition
O=C(Cn1ncn2c(cc3sccc32)c1=O)NCCc1ccccc1		inactive: -6.59%
CCOc1ccc(C2C=C(c3ccc(C)cc3)Nc3ncnn32)cc1 (stereo not drawn)	inconclusive: 22.4 µM [inhibitor, single point]	
C[C@@H]1CC=C[C@H]2[C@H]1C(=O)N(Cc1ccccc1)[C@H]2c1ccc2ccccc2c1Br		inactive: 0.302%
CSc1nsc(/C=C/Nc2ccc(Cl)cc2)c1C#N	inconclusive: 1 µM [inhibitor, single point]	
COc1ccc(CNCCS(=O)(=O)NN2CCOCC2)cc1		inactive: -16.6%
CCCNC(=O)c1ccccc1NC(=O)COc1ccc(OC)cc1	inconclusive: 0.708 µM [inhibitor, single point]	
CCS(=O)(=O)N1Cc2ccccc2CC1C(=O)Nc1cc(S(C)(=O)=O)ccc1Cl (stereo not drawn)	inconclusive: 2.82 µM [inhibitor, partial curve, poor fit]	
COc1ccc(OCCn2c(C3CC(=O)N(c4ccc(F)cc4)C3)nc3ccccc32)cc1 (stereo not drawn)	inconclusive: 39.8 µM [inhibitor, single point]	
N#Cc1c(NC(=O)c2ccncc2)sc2c1CCC2	inconclusive: 25.1 µM [inhibitor, single point]	
N#CCCN1CCN(S(=O)(=O)c2ccc(S(=O)(=O)NCc3ccccc3)cc2)CC1	inconclusive: 0.112 µM [inhibitor, full curve, poor fit]	
CC(C)C[C@H](NC(=O)[C@H](Cc1ccccc1)n1c(=O)[nH]c2ccccc2c1=O)C(=O)N1CCC(C(=O)O)CC1	inconclusive: 7.08 µM [inhibitor, single point]	
COC(=O)c1sc(NC(=S)NNC(=O)c2c(Br)c(C)nn2C)c(C(=O)OC)c1C	inconclusive: 39.8 µM [inhibitor, single point]	
COc1ccc(Cn2c(C3CC3)nc3ccc(NC(C)=O)cc3c2=O)cc1		inactive: -3.5%
COc1ccc(-c2c(-c3cc(OC)cc(OC)c3)n(C)c3ccc(-c4cnc(N)nc4)cc23)cc1		inactive: -2.18%
CC(C)COc1ccc(/C(O)=C2/C(=O)C(=O)N(CCN(C)C)C2c2ccncc2)cc1 (stereo not drawn)	inconclusive: 7.08 µM [inhibitor, single point]	
COc1cc(OC)cc(-c2c(-c3cccs3)c3cc(-c4ccc(N(C)C)nc4)ccc3n2C)c1	inconclusive: 15.8 µM [inhibitor, partial curve]	
Cc1ccc(OCC(=O)c2ccc3c(c2)CCCC3)cc1C	inconclusive: 0.562 µM [inhibitor, single point]	
Cc1cc(C)cc(C(=O)N(C)[C@H](Cc2ccc(-c3ccccc3)cc2)C(=O)N[C@@H](Cc2c[nH]c3ccccc23)C(=O)O)c1	active: 31.6 µM	
COc1ccc(-c2ccc(NS(=O)(=O)c3cc([N+](=O)[O-])ccc3C)cc2)nn1	inconclusive: 20 µM [inhibitor, partial curve]	
FC(F)(F)c1ccc(-c2csc(-c3ccno3)n2)cc1	inconclusive: 7.08 µM [inhibitor, single point]	
O=C(C[n+]1ccccc1)N/N=C/c1ccc(Cl)cc1		inactive: -0.805%
C=C[C@H](N)CCC(=O)O	inconclusive: 15.8 µM [inhibitor, single point]	
O=C(/C=C/Nc1ccc(F)cc1F)c1cccs1	inconclusive: 0.708 µM [inhibitor, single point]	
Cc1cccc(C2(c3cccc(C)c3)CC2C(=O)NCC2CCCO2)c1 (stereo not drawn)		inactive: -3.7%
Cn1nc(C(=O)N2CCN(C(c3ccccc3)c3ccccc3)CC2)c2ccccc2c1=O	inconclusive: 0.316 µM [inhibitor, full curve, poor fit]	

Structure (SMILES)	Potency	activity change, negative = inhibition
COc1ccc(NC(=O)CSc2nnc(Cc3cccs3)n2C)cc1		inactive: 0.968%
O=C(CNCCO)N1N=C(c2cccs2)CC1c1cccs1 (stereo not drawn)	inconclusive: 14.1 µM [inhibitor, partial curve, poor fit]	
CC(=O)NCCNc1nc(-c2cccc(NS(C)(=O)=O)c2)nc2ccccc12		inactive: -5.53%
Cc1ccc(C(=O)OCC(=O)NCc2ccccc2)cc1S(=O)(=O)N1CCCCC1		inactive: -2.98%
N#Cc1ccc(NC(=S)NC(=O)C2CCCCC2)cc1		inactive: -1.18%
CCOc1ccc(NC(=O)C2CCCN(c3nn4c(=O)cc(C)nc4s3)C2)cc1 (stereo not drawn)	inconclusive: 39.8 µM [inhibitor, single point]	
COc1cc2oc(-c3ccc(O)cc3)cc(=O)c2c(OC)c1O		inactive: -19.7%
Cc1ccc(NC(=O)C2CCCN(C(=O)c3ccc(Cl)cc3)C2)c(C)c1 (stereo not drawn)		inactive: -2.57%
CCc1cc2cc(C)cc(C)c2[nH]c1=S	inconclusive: 20 µM [inhibitor, partial curve]	
Cc1nnc(NC(=O)c2oc3ccccc3c2C)s1	inconclusive: 3.55 µM [inhibitor, full curve, poor fit]	
O=c1oc2cc(O)ccc2c2c1CCCC2	inconclusive: 22.4 µM [inhibitor, partial curve]	
Cc1ccc(C)c(N2CCN(C(=O)C3CCC3)CC2)c1		inactive: -28.9%
Nn1c(C2COc3ccccc3O2)n[nH]c1=S (stereo not drawn)		inactive: -17.2%
CCOC(=O)c1cnn2c(C(F)(F)F)cc(-c3ccco3)nc12	inconclusive: 39.8 µM [inhibitor, single point]	
O=C(/C=C/c1ccc(Br)cc1)c1ccc(NC(=O)c2ccco2)cc1		inactive: -2.61%
CSc1ccccc1OCc1cc(C(=O)NC(C)c2cnn(C)c2)no1 (stereo not drawn)	inconclusive: 7.94 µM [inhibitor, full curve]	
Cc1ccc(C(=O)NNC(=O)CSc2nnc3c(n2)[nH]c2ccc(F)cc23)cc1	inconclusive: 0.141 µM [inhibitor, full curve, poor fit]	
O=C(NCCCc1ccccc1)c1nn(-c2ccccc2F)nc1CO		inactive: -2.81%
N#CC1=C(N)SC2(CCCCC2)SC1c1ccccc1 (stereo not drawn)	inconclusive: 0.126 µM [inhibitor, partial curve, poor fit]	
Clc1ccc(OCc2nn3c(-c4ccco4)nnc3s2)c(Cl)c1	inconclusive: 39.8 µM [inhibitor, single point]	
O=C(NCC1(O)CCCCC1)C1CCC(=O)N(Cc2ccccc2F)C1 (stereo not drawn)	inconclusive: 2.82 µM [inhibitor, full curve]	
C1CSC2(N1)C1CC3CC2CC(C1)C31NCCS1 (stereo not drawn)	inconclusive: 39.8 µM [inhibitor, single point]	
Cc1cccc(N(C)S(=O)(=O)c2ccc(-c3cnc(C4CC4)o3)cc2)c1	inconclusive: 0.891 µM [inhibitor, full curve, poor fit]	

13 structures from above, sorted by count of non-hydrogen atoms, rising:
Structure (SMILES)	Potency	activity change, negative = inhibition
CCc1cc2cc(C)cc(C)c2[nH]c1=S	inconclusive: 20 µM [inhibitor, partial curve]	
O=c1oc2cc(O)ccc2c2c1CCCC2	inconclusive: 22.4 µM [inhibitor, partial curve]	
Nn1c(C2COc3ccccc3O2)n[nH]c1=S (stereo not drawn)		inactive: -17.2%
C1CSC2(N1)C1CC3CC2CC(C1)C31NCCS1 (stereo not drawn)	inconclusive: 39.8 µM [inhibitor, single point]	
Cc1nnc(NC(=O)c2oc3ccccc3c2C)s1	inconclusive: 3.55 µM [inhibitor, full curve, poor fit]	
Cc1ccc(C)c(N2CCN(C(=O)C3CCC3)CC2)c1		inactive: -28.9%
O=C(CNCCO)N1N=C(c2cccs2)CC1c1cccs1 (stereo not drawn)	inconclusive: 14.1 µM [inhibitor, partial curve, poor fit]	
COc1cc2oc(-c3ccc(O)cc3)cc(=O)c2c(OC)c1O		inactive: -19.7%
COc1ccc(NC(=O)CSc2nnc(Cc3cccs3)n2C)cc1		inactive: 0.968%
CSc1ccccc1OCc1cc(C(=O)NC(C)c2cnn(C)c2)no1 (stereo not drawn)	inconclusive: 7.94 µM [inhibitor, full curve]	
CC(=O)NCCNc1nc(-c2cccc(NS(C)(=O)=O)c2)nc2ccccc12		inactive: -5.53%
CCOc1ccc(NC(=O)C2CCCN(c3nn4c(=O)cc(C)nc4s3)C2)cc1 (stereo not drawn)	inconclusive: 39.8 µM [inhibitor, single point]	
Cc1ccc(C(=O)OCC(=O)NCc2ccccc2)cc1S(=O)(=O)N1CCCCC1		inactive: -2.98%
